# Experimental data: paper PMC5938709
# Sequences of proteins named here, by UniProt entry; tags and fusion partners are left off.
# UniProt Q15554: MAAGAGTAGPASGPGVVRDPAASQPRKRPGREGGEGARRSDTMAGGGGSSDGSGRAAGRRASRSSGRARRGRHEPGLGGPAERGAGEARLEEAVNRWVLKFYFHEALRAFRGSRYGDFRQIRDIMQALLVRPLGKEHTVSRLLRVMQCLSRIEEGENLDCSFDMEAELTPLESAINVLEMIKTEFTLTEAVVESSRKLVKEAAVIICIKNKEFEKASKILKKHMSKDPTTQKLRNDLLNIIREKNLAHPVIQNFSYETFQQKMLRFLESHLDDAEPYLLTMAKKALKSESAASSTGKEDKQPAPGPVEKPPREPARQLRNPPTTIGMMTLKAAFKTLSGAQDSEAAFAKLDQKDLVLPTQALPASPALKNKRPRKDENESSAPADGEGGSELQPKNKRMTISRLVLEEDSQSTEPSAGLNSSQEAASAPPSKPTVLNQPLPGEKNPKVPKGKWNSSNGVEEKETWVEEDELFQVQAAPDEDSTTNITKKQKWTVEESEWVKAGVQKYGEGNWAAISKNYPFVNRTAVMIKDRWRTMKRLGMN
# UniProt Q14978: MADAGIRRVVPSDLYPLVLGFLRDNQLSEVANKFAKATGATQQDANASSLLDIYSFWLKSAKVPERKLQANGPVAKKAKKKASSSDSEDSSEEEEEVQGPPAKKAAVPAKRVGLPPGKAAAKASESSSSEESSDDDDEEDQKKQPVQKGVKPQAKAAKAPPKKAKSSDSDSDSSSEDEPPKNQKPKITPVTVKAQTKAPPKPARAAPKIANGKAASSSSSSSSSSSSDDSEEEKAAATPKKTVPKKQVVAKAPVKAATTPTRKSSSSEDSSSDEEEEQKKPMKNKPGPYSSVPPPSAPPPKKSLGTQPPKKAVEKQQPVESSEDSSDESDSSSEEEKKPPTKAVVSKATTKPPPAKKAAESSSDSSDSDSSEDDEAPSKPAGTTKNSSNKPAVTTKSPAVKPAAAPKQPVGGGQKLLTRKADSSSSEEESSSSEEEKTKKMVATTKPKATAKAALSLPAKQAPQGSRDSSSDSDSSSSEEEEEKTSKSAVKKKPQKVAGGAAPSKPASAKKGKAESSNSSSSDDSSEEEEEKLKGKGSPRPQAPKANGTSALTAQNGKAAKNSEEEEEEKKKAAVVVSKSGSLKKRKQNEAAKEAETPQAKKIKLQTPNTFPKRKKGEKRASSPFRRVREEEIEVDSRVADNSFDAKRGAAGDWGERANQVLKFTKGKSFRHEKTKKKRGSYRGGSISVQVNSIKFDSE
# These are yes or no findings as the source states them, for the method shown. Binding seen in cells or lysates may run through a third protein. These calls come from enrichment with a bait or labelling near it, and not all partners need be listed.
# Target: Flag-TRF2 (telomeric repeat-binding factor 2 with Flag tag) (human) (UniProt Q15554)
# Assay: affinity purification with mass spectrometry; Flag-TRF2 transfected in HEK293T, 48 h; lysate in 50 mM Tris-HCl pH 7.4, 150 mM NaCl, 1 mM EDTA, 1 mM DTT, 0.3% NP-40; captured on Flag M2 beads, eluted with Flag peptide, SDS-PAGE, silver stain, bands analysed by MS
substance,measurement,value
"Nucleolar and coiled-body phosphoprotein 1 (NOLC1), endogenous (from UniProt Q14978 1-699)",binding,binds
